In all, about 400,000 compounds went through this assay and about 13,000 (3.2%) were called active. Inconclusive results, whose numbers are uncertain, are shown with a selection of clear calls. Calls come from the whole dose curve; as a rule, active = well fitted cell-killing curve with a large enough effect; inconclusive = small, poorly fitted or top-dose-only effect, or effect the other way; inactive = flat fitted curve, though single readings scatter. Where the call is inconclusive, the potency comes from a doubtful curve fit.
Assay: qHTS assay for MDR1-selective chemotherapeutics: Primary screen using the drug-selected MDR subline cells KB-V1; note: nearly all actives have a fitted effect of over 60% in size
Conditions: KB-V1 MDR cells viability, CellTiter-Glo, 72 h; activity change, negative = cytotoxicity: at 46.1 µM (top of the series)
Procedure, shortened: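 Luminescent ATP read-out (CellTiter-Glo, 10 min) measures survival of drug-selected KB-V1 MDR cells after 72 h, 37 degrees C compound exposure. Medium: phenol-red-free DMEM, 10% FBS. Values from fitted concentration-response curves.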
For `COc1ccc(-n2nc(C(=O)NCC(=O)Nc3cccc(C)n3)c3ccccc3c2=O)cc1`, the Potency was inconclusive: 29.1 µM [cytotoxic, single point].
For `Cc1ccc(N=C2CCCN2Cc2ccccc2)c(C#N)c1`, the Potency was active: 18.4 µM.
In the case of `CCn1c(/C=C/c2ccccc2)nc2ccccc21`, the Potency is reported as inconclusive: 29.1 µM [cytotoxic, single point].
With `COC(=O)c1ccccc1NC(=O)N1CCN(C(=O)c2ccco2)CC1` the Potency was active: 7.31 µM.
In the case of `O=C(c1ccccc1)c1ccc2nc(Nc3cc(Cl)ccc3O)c3nncn3c2c1`, the Potency is reported as inconclusive: 16.4 µM [rising, single point].
With `COc1ccc(C(=O)NC2CC2)cc1OC1CCN(Cc2ccccc2)CC1` the Potency was inconclusive: 10.3 µM [cytotoxic, partial curve].
In the case of `CCNC(=S)N/N=C1\CCCCc2ccccc21`, the Potency is reported as active: 16.4 µM.
With `CCOC(=O)N1CCN(C(=O)c2ccccc2N(Cc2ccccc2)S(=O)(=O)c2ccccc2)CC1` the “activity change, negative = cytotoxicity” value was inactive: 16.9%.
For `C/C(=N/NC(=O)c1cnccn1)c1cccs1`, the “activity change, negative = cytotoxicity” value was inactive: -2.64%.
With `CC(C)(C)C(=O)NC(=S)NCc1ccccc1` the Potency was inconclusive: 13 µM [cytotoxic, partial curve].
With `COc1ccc(N(CC(=O)NCC2CCCO2)S(=O)(=O)c2c(C)noc2C)cc1` (stereo not drawn) the Potency was inconclusive: 20.6 µM [cytotoxic, single point].
For `CCn1c(=O)c(C(=O)NNC(=O)c2ccc(Cl)cc2Cl)c(O)c2ccccc21`, the Potency was inconclusive: 5.17 µM [cytotoxic, full curve, poor fit].
With `COC(=O)c1ccccc1NC(=O)Cn1c(=O)n(CCCC(=O)NCCc2ccc(OC)c(OC)c2)c(=O)c2ccccc21` the “activity change, negative = cytotoxicity” value was inactive: 2.73%.
In the case of `Cc1cc(Cl)ccc1OCC(=O)Nc1ccccc1CO`, the Potency is reported as inconclusive: 15.8 µM [cytotoxic, single point].
For `CCOC(=O)C1=NN(C(=O)Cc2ccccc2)C(O)(c2ccc(Cl)cc2)C1` (stereo not drawn), the “activity change, negative = cytotoxicity” value was inactive: -7.8%.
For `CCOC(=O)CSC1=NC(=O)/C(=C\c2ccc(Cl)cc2)S1`, the Potency was inconclusive: 25.9 µM [cytotoxic, single point].
In the case of `Cc1cc(C)c(NC(=O)CCC(=O)N2Cc3ccccc3Oc3ncccc32)c(C)c1`, the “activity change, negative = cytotoxicity” value is reported as inactive: 1.77%.
With `c1ccc(N(c2ccccc2)c2nc(N3CCCC3)nc(-n3ccnc3)n2)cc1` the “activity change, negative = cytotoxicity” value was inactive: 0%.
For `O=C(CCCn1c(SCC(=O)c2ccc(Cl)cc2)nc2ccccc2c1=O)NCc1ccco1`, the “activity change, negative = cytotoxicity” value was inactive: -28.3%.
With `CCn1c(-c2sc(-c3ccccc3)nc2C)n[nH]c1=S` the Potency was inconclusive: 20.6 µM [cytotoxic, single point].
With `Cc1cccc(NC(=S)NNC(=O)c2ccc(Br)o2)c1` the Potency was inconclusive: 20.6 µM [cytotoxic, single point].
With `COc1ccc(Nc2cc(C)c3cc(NC(=O)c4cc(OC)cc(OC)c4)ccc3n2)cc1` the Potency was inconclusive: 23.1 µM [cytotoxic, single point].
With `Cc1cnc(NC(=O)c2sc3ccccc3c2Cl)s1` the Potency was inconclusive: 23.1 µM [cytotoxic, single point].
For `COc1ccccc1OCCC(=O)Nc1nc(C)cs1`, the Potency was inconclusive: 20.6 µM [cytotoxic, partial curve, poor fit].
With `N#Cc1ccc(-c2ccc(Cl)cc2)nc1SCC(=O)c1cccc(Cl)c1` the Potency was inconclusive: 23.1 µM [cytotoxic, single point].
In the case of `Oc1ccccc1C1OCC2(CO1)COC(c1ccccc1O)OC2` (stereo not drawn), the “activity change, negative = cytotoxicity” value is reported as inactive: 1.2%.
In the case of `CCNC(=S)N1CCC(c2nc3ccccc3s2)CC1`, the Potency is reported as inconclusive: 29.1 µM [cytotoxic, single point].
In the case of `O=C1c2ccccc2-c2n[nH]c(=O)c3ccc(N4CCCCC4)c1c23`, the Potency is reported as inconclusive: 29.1 µM [cytotoxic, single point].
In the case of `CCN(CC)c1ccc(N2C(=O)CSC2=S)cc1`, the Potency is reported as inconclusive: 9.2 µM [rising, partial curve].
With `COC(=O)/C=c1\sc2ncnn2c1=O` the “activity change, negative = cytotoxicity” value was inactive: -12.5%.
For `Cc1ccc(NC(=O)CN(C)C(=O)c2ccc3[nH]c4c(c3c2)CC(C)CC4)cc1` (stereo not drawn), the Potency was active: 14.6 µM.
In the case of `O=C(C1CCN(S(=O)(=O)N2CCC3(CC2)OCCO3)CC1)N1CCc2ccccc2C1`, the Potency is reported as active: 9.2 µM.
With `O=C(Nc1ccccc1Oc1ccccc1)C1CCCC1` the Potency was inconclusive: 18.4 µM [cytotoxic, partial curve, poor fit].
With `N#Cc1c[nH]n2c(NC3CCCCC3)c(-c3cccc(Cl)c3)nc12` the Potency was inconclusive: 29.1 µM [rising, single point].
With `COc1ccc(C2CCCCC2SCC(=O)O)cc1OC` (stereo not drawn) the “activity change, negative = cytotoxicity” value was inactive: 6.68%.
In the case of `COc1ccc(N2C(=O)/C(=C\c3ccco3)N=C2SCC(=O)N(C(C)C)C(C)C)cc1Cl`, the Potency is reported as inconclusive: 6.51 µM [cytotoxic, partial curve].
For `O=C(Cc1ccccc1)Nc1cccc(C(=O)O)c1O`, the “activity change, negative = cytotoxicity” value was inactive: 33.9%.
In the case of `CC(C)(C)c1ccc(OCCSc2nc3ccccc3n2CC(=O)O)cc1`, the Potency is reported as inconclusive: 3.66 µM [rising, partial curve].
For `Cc1cc(NC(=O)CSc2nc3ccccc3c(=O)n2C2CCCC2)no1`, the Potency was active: 1.3 µM.
With `COCCSc1nnc(NC(=O)CCS(=O)(=O)c2ccccc2)s1` the “activity change, negative = cytotoxicity” value was inactive: 14%.
In the case of `Cc1cnc(C(=O)Nc2cccc3cccnc23)cn1`, the Potency is reported as inconclusive: 2.59 µM [cytotoxic, full curve, poor fit].
For `COc1ccc2c(c1)nc(SCC(C)O)n2C` (stereo not drawn), the Potency was inconclusive: 29.1 µM [cytotoxic, single point].
In the case of `OC(Cc1cccc(Br)c1)c1ncc(-c2ccccc2C(F)(F)F)[nH]1` (stereo not drawn), the Potency is reported as inconclusive: 23.1 µM [cytotoxic, single point].
In the case of `COc1ccc(CNC(=O)c2ccc(-c3nc(CSc4ccccc4)c(C)o3)cc2)c(OC)c1`, the “activity change, negative = cytotoxicity” value is reported as inactive: -2.34%.
In the case of `COc1ccc(C(=O)N/N=C/c2ccc(OC)c(CN3CCN(c4ccc(F)cc4)CC3)c2)cc1`, the Potency is reported as inconclusive: 7.31 µM [cytotoxic, partial curve].
In the case of `CCc1nc2ccc(C(=O)Nc3cc(-c4ccccc4)ccc3OC)cn2c1N(CC)CC(=O)N(C)C`, the “activity change, negative = cytotoxicity” value is reported as inactive: 0.441%.
For `N#Cc1c(C(F)(F)F)cc(-c2cccs2)nc1SC(C(=O)O)c1ccccc1` (stereo not drawn), the “activity change, negative = cytotoxicity” value was inactive: -0.0523%.
With `CCc1nnc(N/N=C/c2ccc(N3CCC(C)CC3)c([N+](=O)[O-])c2)n1N` the Potency was inconclusive: 18.4 µM [cytotoxic, single point].

From PubChem BioAssay AID1347076 (National Center for Advancing Translational Sciences (NCATS), 2019)
% is set by controls: 0 for no effect and ±100 for the full control effect; potency is the fitted concentration of half-maximal effect.
